Test system: T1, Gq/11-coupled muscarinic acetylcholine receptors (mAChR) endogenous to 293-F cells
T1 construct: gene CHRM3
Test: FLIPR calcium release, stable GCaMP6s
Type: cell-based
Details: antagonist; acetylcholine challenge (30 nM in Figure 4 legend), 30 min pre-incubation, 2 mM Ca2+, pH 7.4
Text: FLIPR calcium release, stable GCaMP6s on Gq/11-coupled muscarinic acetylcholine receptors (mAChR) endogenous to 293-F cells

For `CN1CCN(CC(=O)N2c3ccccc3C(=O)Nc3cccnc32)CC1` [pirenzepine], the “GCaMP6s pEC50” value was 7.59 ± 0.04 -log10(M).

— publication PMC6722131, “High-throughput-compatible assays using a genetically-encoded calcium indicator” (Scientific Reports, 2019)
